Laboratory results taken from PubChem BioAssay AID504444 (National Center for Advancing Translational Sciences (NCATS), 2011).
Out of some 360,000 compounds screened, about 7,500 (2.1%) were called active. The shares of active, inactive and inconclusive entries below differ from those in the screen. Calls come from the whole dose curve; as a rule, active = well fitted inhibition curve with a large enough effect; inconclusive = small, poorly fitted or top-dose-only effect, or effect the other way; inactive = flat fitted curve, though single readings scatter. A potency beside an inconclusive call is a rough fit, not a confirmed value.
Potency is the fitted concentration of half-maximal effect.

Assay: Nrf2 qHTS screen for inhibitors; note: nearly all actives have a fitted effect of over 60% in size
Conditions: A549 ARE-Fluc reporter, luciferase luminescence, 18-24 h; series mostly up to 46 µM
In short: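 Two sequential reads on A549 ARE_Fluc cells exposed to compound for 18-24 h: a CellTiter-Fluor fluorescence read for viability, then a luciferase luminescence read for Nrf2/ARE activity.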
With `COC(=O)c1cc2ccccc2c(-c2c(OC)c(C(=O)OC)cc3ccccc23)c1OC` the Potency was inconclusive: 29.1 µM [falling, partial curve, poor fit].
For `Cc1cc2nc(-c3cccc(NC(=O)COc4ccc(C(C)C)cc4)c3)oc2cc1C`, the Potency was inconclusive: 0.731 µM [activator, full curve].
With `Nc1ccc(C2CCCc3nonc32)c2nonc12` (centres undefined) the Potency was “inactive”.
For `COc1ccc(N2CCN(C(=O)c3c(C)oc4nc(C)nc(N5CCCC5)c34)CC2)cc1`, the Potency was inconclusive: 20.6 µM [activator, partial curve, poor fit].
In the case of `C=CCN(c1ccccc1)S(=O)(=O)c1cccc(C(=O)N2CC(C)CC(C)C2)c1` (centres undefined), the Potency is reported as active: 20.6 µM.
In the case of `CN(Cc1nc2ccccc2c(=O)[nH]1)C(=O)COc1ccccc1Cc1ccccc1`, the Potency is reported as inconclusive: 6.51 µM [falling, full curve].
For `O=C(N/N=C/c1cccnc1)c1cc(-c2ccc(Cl)cc2)nc2ccccc12`, the Potency was inconclusive: 32.6 µM [falling, single point].
For `NC(=O)c1ccsc1NC(=O)c1ccc(S(=O)(=O)N2CCCc3ccccc32)cc1`, the Potency was active: 18.4 µM.
With `CC(=O)Nc1sc(C)c(C)c1C(=O)OCC(=O)N(Cc1ccccc1)C(C)C` the Potency was “inactive”.
For `Cc1nc2nncn2c(Nc2ccc(F)cc2)c1C`, the Potency was inconclusive: 23.1 µM [falling, partial curve].
With `COc1ccc(Cl)cc1NC(=O)c1cc2ccccn2n1` the Potency was inconclusive: 8.2 µM [activator, partial curve].
With `COc1cccc(-n2c(=O)c3sccc3n(Cc3cc(=O)n4cc(Cl)ccc4n3)c2=O)c1` the Potency was “inactive”.
For `CCN(C(=O)CN1C(=O)NC(c2ccccc2)(c2ccc(C)c(C)c2)C1=O)C1CCCCC1` (centres undefined), the Potency was inconclusive: 20.6 µM [falling, single point].
For `CCOc1ccc(Nc2ccc(S(=O)(=O)N3CCN(C)CC3)cc2[N+](=O)[O-])cc1OCC`, the Potency was “inactive”.
With `Cc1ccc(NC(=O)NN2CCOCC2)cc1` the Potency was inconclusive: 3.66 µM [falling, partial curve, poor fit].
With `O=C(CCN1C(=O)S/C(=C\c2ccccc2)C1=O)N1CCCCC1` the Potency was inconclusive: 29.1 µM [activator, single point].
For `CCCCNS(=O)(=O)c1ccc(NS(=O)(=O)c2c(C)cc(C)cc2C)cc1`, the Potency was inconclusive: 29.1 µM [falling, single point].
For `COc1ccc(NC(=O)CCOc2ccccc2F)cc1S(=O)(=O)N1CCCCC1`, the Potency was active: 20.6 µM.
For `O=c1cc(CSc2nnc(COc3ccccc3)o2)c2ccccc2[nH]1`, the Potency was inconclusive: 6.51 µM [falling, partial curve, poor fit].
In the case of `CCOC(=O)/C(=C\c1ccc(OC(F)F)cc1)C1=Nn2c(nnc2-c2ccc(Cl)cc2)SC1`, the Potency is reported as inconclusive: 16.4 µM [falling, single point].
With `CCn1cc(S(=O)(=O)CC(=O)Nc2cc(C)ccc2C)c2ccccc21` the Potency was inconclusive: 16.4 µM [activator, partial curve, poor fit].
For `COc1ccc(CC(=O)c2ccc(OC3OC(CO)C(O)C(O)C3O)cc2O)cc1` (centres undefined), the Potency was inconclusive: 25.9 µM [activator, single point].
With `Cc1ccc(NC(=O)N2CCC(CN3CCCCCC3)CC2)c(Cl)c1` the Potency was inconclusive: 16.4 µM [activator, single point].
With `COc1ccc(-c2oc(NC(=O)CSc3nncn3C)c(C#N)c2-c2ccc(OC)cc2)cc1` the Potency was inconclusive: 25.9 µM [falling, partial curve, poor fit].
For `CC(=O)N1N=C(c2ccc(Br)cc2)OC1(C)CC(=O)Nc1ccccc1` (centres undefined), the Potency was active: 23.1 µM.
In the case of `CCCNC(=O)c1c(NC(=O)c2ccccc2F)sc2c1CCCCC2`, the Potency is reported as “inactive”.
For `Cc1cccc(C(=O)OCc2cc(=O)n3nc(C4CC4)sc3n2)c1`, the Potency was inconclusive: 29.1 µM [activator, single point].
With `Cc1ccc(-c2nc(C(=O)Nc3cccc(C#N)c3)c3n2CCCCC3)cc1` the Potency was inconclusive: 23.1 µM [activator, partial curve].
For `CC(C)Oc1ccc(CNS(=O)(=O)c2csc(C(N)=O)c2)cc1`, the Potency was active: 14.6 µM.
In the case of `COC(=O)c1[nH]c2c(c1C)C(=O)CC(c1ccc(OC)c(OC)c1)C2` (centres undefined), the Potency is reported as inconclusive: 29.1 µM [falling, single point].
In the case of `Cn1c(CN2CCOCC2)nc2cc(NC(=O)c3ccc(F)cc3)ccc21`, the Potency is reported as inconclusive: 25.9 µM [falling, single point].
In the case of `COc1ccc(-c2nc(SCC(=O)Nc3ccc4c(c3)OCO4)c(-c3ccc(F)cc3)[nH]2)cc1OC`, the Potency is reported as inconclusive: 3.66 µM [falling, single point].
With `Cc1ccccc1OCC(O)Cn1c(NCc2ccccc2)nc2c1c(=O)[nH]c(=O)n2C` (centres undefined) the Potency was inconclusive: 25.9 µM [falling, single point].
For `COc1cc(CN(CC(C)C)S(=O)(=O)c2ccccc2Br)cc(OC)c1`, the Potency was inconclusive: 10.3 µM [falling, partial curve].
For `O=C1Nc2ccccc2/C1=C/c1ccnc2ccccc12`, the Potency was inconclusive: 20.6 µM [falling, partial curve].
In the case of `Cc1ccc2c(c1)N(CC(=O)NCCCN1CCCCC1)C(=O)c1cccnc1O2`, the Potency is reported as inconclusive: 23.1 µM [activator, partial curve, poor fit].
For `CCOC(=O)CC(=O)CSc1nc2c(c(-c3cccs3)c1C#N)CCC2`, the Potency was inconclusive: 6.51 µM [activator, single point].
With `CCOc1ccc(-n2c(SCC(=O)Nc3ccc4c(c3)OCO4)nc3c(c2=O)SCC3)cc1` the Potency was inconclusive: 4.11 µM [falling, full curve].
With `CC(C)C(=O)Nc1c(C(=O)N2CCN(c3ccccc3F)CC2)oc2ccccc12` the Potency was “inactive”.
With `Fc1ccc(C(c2nnc(-c3ccccc3)o2)N2CCN(c3ccccc3)CC2)c(Cl)c1` (centres undefined) the Potency was inconclusive: 25.9 µM [falling, single point].
In the case of `O=C(C1=NNCC1c1ccccc1)C1CO1` (centres undefined), the Potency is reported as “inactive”.
For `O=C(Nc1ccccc1N1CCOCC1)c1cccc(NS(=O)(=O)c2ccc(F)c(F)c2)c1`, the Potency was inconclusive: 29.1 µM [falling, single point].
For `CCOC(=O)C1CCCN(S(=O)(=O)c2cc3c4c(c2)CCN4C(=O)CC3)C1` (centres undefined), the Potency was inconclusive: 29.1 µM [falling, single point].
In the case of `CCOc1ccc(OCCn2nnc3ccccc3c2=O)cc1`, the Potency is reported as inconclusive: 2.59 µM [activator, partial curve].
In the case of `COc1ccc(-c2csc(NC(C)c3nc4cc(Cl)c(Cl)cc4n3CCCO)n2)cc1` (centres undefined), the Potency is reported as inconclusive: 29.1 µM [falling, single point].
In the case of `COC(=O)C(NC(=O)c1ccccc1Cl)(Nc1ncc(S(=O)(=O)c2ccc([N+](=O)[O-])cc2)s1)C(F)(F)F` (centres undefined), the Potency is reported as active: 20.6 µM.
For `Cc1ccc(C(=O)Nc2cc3cc(Cl)ccc3oc2=O)cc1`, the Potency was inconclusive: 9.2 µM [activator, partial curve].
In the case of `CCc1cccc(NC(=O)c2sc3nc4n(c(=O)c3c2C)CCC4)c1`, the Potency is reported as “inactive”.
With `CCOC(=O)C(C)Sc1nc2c(cnn2-c2ccc(C)cc2)c(=O)[nH]1` (centres undefined) the Potency was inconclusive: 4.11 µM [falling, partial curve].
With `C/C(=N\NC(=O)c1ccccc1F)c1ccccn1` the Potency was inconclusive: 11.6 µM [falling, partial curve, poor fit].
For `O=[S+]([O-])(/C=C/c1nc(Nc2cc(F)cc(F)c2)c2ncn(CC(F)F)c2n1)c1ccccc1`, the Potency was “inactive”.
In the case of `CCOC(=O)CNC(=S)N(Cc1ccccc1F)C1CCCCC1`, the Potency is reported as inconclusive: 20.6 µM [falling, single point].
With `CCCn1c(N2CCN(Cc3ccc(Cl)cc3)CC2)nc2ccccc21` the Potency was inconclusive: 58 µM [falling, single point].
In the case of `Cc1ccccc1-c1nc(S(=O)(=O)c2ccc(Cl)cc2)c(NCCN2CCOCC2)o1`, the Potency is reported as inconclusive: 32.6 µM [falling, single point].
In the case of `CCOc1cc(N2CCOCC2)c(OCC)cc1NC(=O)CN1CCSC1=O`, the Potency is reported as “inactive”.
With `CN(C)/C(CN1CCN(C=O)CC1)=C1\N=C(c2ccccc2)OC1=O` the Potency was active: 23.1 µM.
In the case of `COc1ccc(C(C(=O)NCc2ccccc2)N(C(=O)c2snc(C(N)=O)c2N)c2ccccc2OC)cc1` (centres undefined), the Potency is reported as inconclusive: 1.46 µM [falling, partial curve, poor fit].
In the case of `Cc1ccc(NC(=O)c2cc3cc(OC(F)(F)F)ccc3[nH]2)cc1`, the Potency is reported as inconclusive: 4.11 µM [falling, full curve].
For `COC(=O)c1c(-c2ccc(N(C)C)cc2)sc2ccc(OC)cc12`, the Potency was inconclusive: 3.26 µM [falling, single point].
For `O=C(COC(=O)c1ccccc1Br)NCC1CCCCC1`, the Potency was inconclusive: 2.91 µM [falling, partial curve].
For `COc1ccc(C(=O)/C=C/Nc2ccc(S(=O)(=O)Nc3cccc(C(C)=O)c3)cc2)cc1`, the Potency was inconclusive: 5.8 µM [falling, full curve, poor fit].
For `COc1ccc(-c2cc([C@H]3[C@@H]4C=CCC[C@@]4(C)C(=O)N3Cc3ccccc3)ccc2F)cc1OC`, the Potency was inconclusive: 16.4 µM [falling, single point].
For `CCOc1ccccc1NC(=O)C(=O)N/N=C/c1cc(Br)ccc1O`, the Potency was inconclusive: 20.6 µM [falling, single point].
For `CCC(=O)N1CCc2cc(Br)cc(S(=O)(=O)NCCCN(CC)Cc3ccccc3)c21`, the Potency was inconclusive: 16.4 µM [activator, single point].
